Results are given in words; binding and its absence hold for the method and conditions named. In cells and extracts the contact can be indirect. Here binding means that the protein was enriched with, or labelled near, the bait; the list need not be complete.
Target: Rat HA-SMYD5, from lentivirus vector pCMV-Smyd5 (rat)-HA-Neo (rat)
Experiment: affinity purification with mass spectrometry; rat FLS expressing HA-SMYD5 lysed in IP-RIPA buffer; anti-HA mouse mAb and Protein A/G PLUS-Agarose; SDS-PAGE, the HA-SMYD5 band and a nearby region (~42 kd) excised for mass spectrometry

binding: binds
B1: HK2 (endogenous, rat fibroblast-like synoviocytes) (enzyme, UniProt P27881 1-917)
chain: MIASHMIACLFTELNQNQVQKVDQFLYHMRLSDETLLEISRRFRKEMEKGLGATTHPTAAVKMLPTFVRSTPDGTEHGEFLALDLGGTNFRVLRVRVTDNGLQRVEMENQIYAIPEDIMRGSGTQLFDHIAECLANFMDKLQIKEKKLPLGFTFSFPCHQTKLDESFLVSWTKGFKSSGVEGRDVVDLIRKAIQRRGDFDIDIVAVVNDTVGTMMTCGYDDQNCEIGLIVGTGSNACYMEEMRHIDMVEGDEGRMCINMEWGAFGDDGTLNDIRTEFDREIDMGSLNPGKQLFEKMISGMYMGELVRLILVKMAKAELLFQGKLSPELLTTGSFETKDVSDIEEDKDGIEKAYQILMRLGLNPLQEDCVATHRICQIVSTRSASLCAATLAAVLWRIKENKGEERLRSTIGVDGSVYKKHPHFAKRLHKAVRRLVPDCDVRFLRSEDGSGKGAAMVTAVAYRLADQHRARQKTLESLKLSHEQLLEVKRRMKVEMEQGLSKETHAVAPVKMLPTYVCATPDGTEKGDFLALDLGGTNFRVLLVRVRNGKRRGVEMHNKIYSIPQEVMHGTGEELFDHIVQCIADFLEYMGMKGVSLPLGFTFSFPCQQNSLDQSILLKWTKGFKASGCEGEDVVTLLKEAIHRREEFDLDVVAVVNDTVGTMMTCGYEDPHCEVGLIVGTGSNACYMEEMRNVELVDGEEGRMCVNMEWGAFGDNGCLDDLRTVFDVAVDELSLNPGKQRFEKMISGMYLGEIVRNILIDFTKRGLLFRGRISERLKTRGIFETKFLSQIESDCLALLQVRAILRHLGLESTCDDSIIVKEVCTVVARRAAQLCGAGMAAVVDKIRENRGLDNLKVTVGVDGTLYKLHPHFAKVMHETVRDLAPKCDVSFLESEDGSGKGAALITAVACRIREAGQR

From paper PMC11959843
